The target in this assay is T1, recombinant MUC18 protein (rProtein) (Homo sapiens (Human)) (UniProt P43121).
T1 sequence: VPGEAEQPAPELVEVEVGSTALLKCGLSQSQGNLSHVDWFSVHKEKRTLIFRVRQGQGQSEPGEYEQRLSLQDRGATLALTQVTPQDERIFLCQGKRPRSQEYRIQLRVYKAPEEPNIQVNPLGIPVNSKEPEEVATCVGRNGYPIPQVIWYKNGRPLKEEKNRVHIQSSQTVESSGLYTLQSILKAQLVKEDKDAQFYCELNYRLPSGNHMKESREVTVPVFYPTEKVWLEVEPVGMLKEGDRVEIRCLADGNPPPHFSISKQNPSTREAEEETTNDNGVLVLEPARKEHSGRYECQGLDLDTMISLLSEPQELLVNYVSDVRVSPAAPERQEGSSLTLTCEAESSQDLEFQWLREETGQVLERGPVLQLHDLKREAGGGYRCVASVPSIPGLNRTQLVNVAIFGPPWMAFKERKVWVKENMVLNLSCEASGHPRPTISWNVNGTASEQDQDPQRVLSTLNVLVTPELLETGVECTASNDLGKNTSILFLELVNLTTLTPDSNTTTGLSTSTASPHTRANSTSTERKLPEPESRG
The assay is described as follows: ELISA titration with recombinant MUC18 protein. A general note: In an ELISA, binding on a coated surface is turned into a signal by an enzyme label.

No constants are given. Whether binding was seen depends on the method and setting. Some binding calls cover weakened binding; strength is not graded here.

B1: CL070370 (antibody, V domains shown)
VH: QIQLVQSGPELKKPGETVKISCKTSGYTFTDYSMHWVKQAPRKGLKWMGWINTETGEPTYADDFKGRFAFSLETSASTAYLQINNLRNEDTATYFCVSYDYDAVSYWGQGTLVTVSA
VL: DIVMTQSHKFMSTSVGDRVNITCKASQYVGAAVAWYQQKPGQSPKLLIYWASTRHTGVPDRFTGSGSGTDFTLTINNVQSEDLADYFCQQYGNYRTFGGGTKLEIK
notes: also called anti-MUC18 antibody CL070370
Regarding B1, the binding entry is “binds”.

B2: J253 (antibody, V domains shown)
VH: QVQLQQSGAELVKPGASVKLSCKASGYTFTSYDINWVRQRPEQGLEWIGWIFPGDGSTDYNEKFKGKATLTTDKSSSTAYMQLSRLTSEDSAVYFCARYHFFDNWGQGTTLTVSS
VL: DIVITQDELSNPVTSGESVSISCRSSKSLLYKDGKTYLSWFLQRPGQSPQLLIYLMSTRASGVSDRFSGSGSGTDFTLEISRVKAEDVGVYYCQQLVEYPYTFGGGTKLEIK
notes: also called anti-MUC18 antibody (J253)
With B2, the binding entry is on record as “binds”.

B3: CL070341 (antibody, V domains shown)
VH: EVQLVESGGDLVRPGGSLKLSCAASGFTFSTYGMSWVRQSPDKRLEWVATINSRASYTYYPDSVKGRFTISRDNAKNTLYLQMSSLKSEDTGLYFCARHRRDWDSYYAMDYWGQGTSVTVSS
VL: NIMLTQSPSSLAVSTGDKVTMNCKSSQSVLYNSNQKNYLAWYQQKPGQSPTLLIYWASTSESGVPDRFTGSGSGTDFTLTISSVQAEDLAVYYCHQYLSSWTFGGGTKLEIK
notes: also called anti-MUC18 antibody CL070341
With B3, the binding result was “binds”.

B4: CL070350 (antibody, V domains shown)
VH: AVQLVESGGDLLRPGGSLKLSCVASGFTFNNYGMSWVRQTPDKRLEWVATINRGGSYTYYTDSVKGRFTISRDNAKKTLYLQMSSLKSEDTAMYYCARHRRDWDSYYAMDYWGQGTSVTVSS
VL: NIMMTQSPSSLAVSAGDKVAMSCKSSRSVLYNSNQKNYLAWYQLKPGQSPKLLIYWASTRESGVPDRFTGSGSGTDFTLTISSVQAEDLAVYYCHQYLSSWTFGGGTKVEIK
notes: also called anti-MUC18 antibody CL070350
In the case of B4, the binding result is reported as “binds”.

B5: CL070333 (antibody, V domains shown)
VH: QVQLQQSGPELVKPGTSVKISCKASGFTFTGYYLHWLKQRPGQGLEWIGWIYPGNVNTEFNEKFKGQATLTADKSSSTAYMQLSSLTSEDSAVYFCARSGYFASSYEFAYWGQGTLVTVSA
VL: DIQMTQSPASLSASVGETVTITCRASENIYSYLAWYQQKQGKSPQLLVYNAKTLAEGVPSRFSVSGSGTHFSLKINSLQPEDFGSYYCQHHYGTPLTFGAGTKLELK
notes: also called anti-MUC18 antibody CL070333
In the case of B5, the binding entry is reported as “binds”.

B6: CL070349 (antibody, V domains shown)
VH: DVQLQESGPGLVKPSQSLSLTCSVTGYSITSGFYWNWIRQLPGNKLEWLGYINFGGTNNYNPSLKIRGSITRDTSKNQFFLKLNSVTTEDTATYYCARGGNDGGFTYWGQGTLVTVSA
VL: ENVLTQSPAIVAASLGQKVTMTCRASSSVSSTYFHWYQQKSGASPKPLLHRTSNLASGVPARFSGSGSGTSYSLTISSVEAEDDATYYCHQWSGYPYTFGGGTKLEIK
notes: also called anti-MUC18 antibody CL070349
Consider B6, for which the binding entry is on record as “binds”.

B7: CL070324 (antibody, V domains shown)
VH: EVLLQQSGPELVKPGASVKIPCKASGYTFTDYNMDWVKQSHGKSLEWIGDINPNNGATLYNQNFRGKATLTVDKSSSTAYMELRSLTSEDTAVYYCTRSGYDDYYALDYWGQGTSVTVSS
VL: QTVLTQSPAIMSASLGEEITLTCSASSSVGYMHWYQQKSGTSPKLLIYSTSNLASGVPSRFSGRGSGTFYSLTISTVEAEDAADYYCHQWSNYPSTFGTGTKLELK
notes: also called anti-MUC18 antibody CL070324
As to B7, the binding result was “binds”.

B8: CL070320 (antibody, V domains shown)
VH: EVLLQQSGPELVQPGTSVKIPCKASGYTFTDYNMDWVKQSHGKSLEWIGDINPNNGGTLYNQKFKGKATLSVDKSSSTAYMELRSLTSEDAAVYYCARSGYDNYYALDYWGQGTSVTVSS
VL: QIVLTQSPPIMSASLGEEITLTCSASSTVGYMHWFQQKSGTSPKLLIYSTSNLASGVPSRFSGSGSGTFYSLTISSVEAEDAADYYCHQWSSYPCTFGAGTKLELK
As for B8, the binding entry is listed as “no binding (tested: 1000 nM)”.

B9: CL070321 (antibody, V domains shown)
VH: EVLLQQSGPELVKPGASVKIPCKASGYTFTDYNIDWVKQSHGKSLEWIGDINPNNGGTLYNQKFKAKATMTVDKSSSTAYMELRSLTSDDTAVYYCARSGYDDYYAFDYWGQGTSVTVSS
VL: QVVLTQSPAIMSAFLGEKITLTCSASSSVGYLHWYQQKSGTSPKLLIYSTSNVASGVPSRFSGSGSGTFYSLKISSVEAEDAADYYCHQWSSYPSTFGAGTRLELK
Turning to B9, the binding result was “no binding (tested: 1000 nM)”.

B10: CL070336 (antibody, V domains shown)
VH: DVQLQESGPDLVKPYQSLSLTCTVTGYSITSGYSWHWIRQFPGNKLEWLGYMHYSATPNYNPSLKSRISITRDTSKNQFFLQLNSVTTEDTATYYCSRSLNWDVLDYWGQGTTLIVSS
VL: DIVLTQSPAYLPVSLGQRATISCRASKSVRTSGYNYLHWYQQKPGQPPKLLIYLASNPESGVPGRFSGSGSGTDFTLNIHPVEEEDSATYYCQHSREFPFTFGGGTQLEIK
notes: also called anti-MUC18 antibody CL070336
On to B10, for which the binding entry is “binds”.

B11: CL070335 (antibody, V domains shown)
VH: DVQLQESGPDLVKPSQSLSLTCTVTGYSITSGYSWHWIRQFPGNKLEWMGYIHYSTTTNYNPSLKSRISITRDTSKNQFFLQLSSVTTEDTATYFCSRSLNWDVLDYWGQGTTLIVSS
VL: DIVLTQSPAYLPVSLGQRATISCRASKSVRTSGYSYLHWYQQKPGQPPKLLIYLASNLESGVPDRFSGSGSGTDFTLNIHPVEEEDAATYYCQHTREFPFTFGGGTKLEIK
notes: also called anti-MUC18 antibody CL070335
As to B11, the binding entry is recorded as “binds”.

For the origin of these results see US20250367313A1 (MULTITUDE, published 2025).
